The values below come from patent publication US20120114557A1.

Results are given in words; binding and its absence hold for the method and conditions named. Binding calls can cover weak binding; strength is not graded here.

The assay addresses collagen (dried collagen assay; species not stated at the place). In words: words in the Langendorff heart example.

Take GQWTCSGDAYTWHCNYE (disulfide between the two cysteines (cyclic)) [SEQ ID NO: 144]: the binding entry is “binds”.
